Measured data: PubChem BioAssay AID504808 (Drosophila RNAi Screening Center, 2011)
The deposit covers about 21,000 reagents; shown is an unselected part of those with a known target gene and a result. In the full data, 18 (0.084%) got an active call. 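Raw counts without plate normalisation, one of two replicates; the ratio scores behind the calls were not deposited.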 Not given: the amount of reagent, the time to read-out.

Test: 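Chromatin factors that keep E2F targets switched off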 (primary screen)
System: Drosophila S2 cells
Reagent: long dsRNA against Drosophila genes
Read-out: 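Firefly luciferase driven by E2F sites, normalised to Renilla luciferase on the same minimal promoter, measured by plate reader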
Direction: E2F firefly: higher = more E2F reporter activity; Renilla normaliser: higher = more normaliser reporter signal
Rule for the call: 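Called active if the normalised E2F reporter went up by over 50%; the cutoff is arbitrary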

After knock-down of CG15382 [DRSC00397] the results were E2F firefly, rep 1 = 1.57e5; Renilla normaliser, rep 1 = 5460; inactive. After knock-down of ltl (larval translucida) [DRSC10206] the results were E2F firefly, rep 1 = 1.01e5; Renilla normaliser, rep 1 = 3993; inactive. ltl (larval translucida) [DRSC10870] gave E2F firefly, rep 1 = 1.07e5; Renilla normaliser, rep 1 = 4300; inactive. After knock-down of CG10184 [DRSC14204] the results were E2F firefly, rep 1 = 80771; Renilla normaliser, rep 1 = 3885; inactive. eIF3j (eukaryotic translation initiation factor 3 subunit j) [DRSC06107] scored E2F firefly, rep 1 = 3661; Renilla normaliser, rep 1 = 205; inactive. Silencing of mRpL13 (mitochondrial ribosomal protein L13) [DRSC02076] came out at: E2F firefly, rep 1 = 1.05e5; Renilla normaliser, rep 1 = 4626; inactive.

Knock-down of sip2 (septin interacting protein 2) [DRSC03154] gave: E2F firefly, rep 1 = 1.40e5; Renilla normaliser, rep 1 = 4673; inactive. Against CG11560 [DRSC09843], the entry reads E2F firefly, rep 1 = 82857; Renilla normaliser, rep 1 = 3878; inactive. Depletion of Idgf4 (Imaginal disc growth factor 4) [DRSC18675] came out at: E2F firefly, rep 1 = 1.23e5; Renilla normaliser, rep 1 = 6617; inactive. Depletion of CG1441 [DRSC06448] gave: E2F firefly, rep 1 = 2832; Renilla normaliser, rep 1 = 209; inactive. CG15563 [DRSC15101] showed E2F firefly, rep 1 = 1.11e5; Renilla normaliser, rep 1 = 5541; inactive. With knock-down of CycC (Cyclin C) [DRSC16619] the results were E2F firefly, rep 1 = 1.03e5; Renilla normaliser, rep 1 = 3106; inactive.
